This data set has as its target T1, TrmTS (TK1257 gene product) (Thermococcus kodakarensis KUW1) (UniProt Q5JGM1).
T1 sequence (looked up, limits assumed): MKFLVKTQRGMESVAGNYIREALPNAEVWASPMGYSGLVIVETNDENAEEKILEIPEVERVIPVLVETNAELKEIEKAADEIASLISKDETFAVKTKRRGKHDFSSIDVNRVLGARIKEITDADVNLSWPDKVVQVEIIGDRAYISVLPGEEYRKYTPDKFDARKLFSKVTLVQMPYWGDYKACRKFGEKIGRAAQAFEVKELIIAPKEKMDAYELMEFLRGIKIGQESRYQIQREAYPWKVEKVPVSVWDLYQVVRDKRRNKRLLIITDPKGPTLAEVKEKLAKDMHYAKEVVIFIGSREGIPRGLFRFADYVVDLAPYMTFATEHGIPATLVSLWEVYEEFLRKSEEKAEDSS
The experiment in a line: competition (inhibition of methylation of wild-type tRNA-Trp transcript). The note with it: SAM, competitor against wild-type tRNA-Trp transcript; recombinant protein.

Construct, isoform or probe ends are uncertain for at least one entry. Negatives hold for the conditions tested. Where a protein sequence is shown, tags need not be part of it.

In the case of “GGGGGCGUGGUGUAGCCUGGUCCAUCAUCGCGGGCUCCAGACCCGCGGACCGGGGUUCAAAUCCCCGCGCCCCC [tRNA-Trp dACCA terminus transcript (-ACCA)]”, the binding result is “no binding”.

(Values after paper PMC12255305, “A transfer RNA methyltransferase with an unusual domain composition catalyzes 2′-O-methylation at position 6 in tRNA” (Nucleic Acids Research, 2025).)
